# Assay results reported in the supplement of paper PMC7646827.
# Counter-ions that a name gives are not always drawn. Many values rest on one well or one pass, so single values are uncertain.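 All cells are established human bladder cancer lines, one derived from a patient-derived xenograft. A luminescent ATP assay measured viability as percent inhibition relative to vehicle across seven dilutions. The paper rates scores above 59 very active, 30–59 active, 21–29 semi-active, 9–20 low active, below 9 inactive.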
# How the values were obtained:
# Test in all cases: drug sensitivity score DSS3 (score 0-100); higher = more sensitive; extreme values may be limits of the assay
# Conditions in all cases: culture: 3D, ultra-low attachment; treatment time: 5 days
# BC8149 = system: BC8149
# UM-UC-18 = system: UM-UC-18
# UM-UC-1 = system: UM-UC-1
# UM-UC-12 = system: UM-UC-12
# UM-UC-5 = system: UM-UC-5
# TCCSUP = system: TCCSUP
# T-24 = system: T-24
# UM-UC-9 = system: UM-UC-9
# UM-UC-6 = system: UM-UC-6
# SCaBER = system: SCaBER
# UM-UC-17 = system: UM-UC-17
# UM-UC-3 = system: UM-UC-3
# UM-UC-14 = system: UM-UC-14
# UM-UC-15 = system: UM-UC-15
# 5637 = system: 5637
# SW780 = system: SW780
# J82 = system: J82
smiles,measurement,setting,value
C[C@]1(c2nc3c(C(N)=O)cccc3[nH]2)CCCN1 [Veliparib (ABT-888)] (max dose 10000 nM),drug sensitivity score DSS3,BC8149,0.789
same,drug sensitivity score DSS3,UM-UC-18,2.45
same,drug sensitivity score DSS3,UM-UC-1,0
same,drug sensitivity score DSS3,UM-UC-12,0
same,drug sensitivity score DSS3,UM-UC-5,0
same,drug sensitivity score DSS3,TCCSUP,1.07
same,drug sensitivity score DSS3,T-24,0.0608
same,drug sensitivity score DSS3,UM-UC-9,0
same,drug sensitivity score DSS3,UM-UC-6,0
same,drug sensitivity score DSS3,SCaBER,0
same,drug sensitivity score DSS3,UM-UC-17,0
same,drug sensitivity score DSS3,UM-UC-3,0.0586
same,drug sensitivity score DSS3,UM-UC-14,0.334
same,drug sensitivity score DSS3,UM-UC-15,0
same,drug sensitivity score DSS3,5637,1.05
same,drug sensitivity score DSS3,SW780,0
same,drug sensitivity score DSS3,J82,0
"CCCS(=O)(=O)Nc1ccc(F)c(C(=O)c2c[nH]c3ncc(-c4ccc(Cl)cc4)cc23)c1F [Vemurafenib (PLX4032, RG7204)] (max dose 10000 nM)",drug sensitivity score DSS3,BC8149,1.37
same,drug sensitivity score DSS3,UM-UC-18,2.58
same,drug sensitivity score DSS3,UM-UC-1,0.0831
same,drug sensitivity score DSS3,UM-UC-12,0
same,drug sensitivity score DSS3,UM-UC-5,0
same,drug sensitivity score DSS3,TCCSUP,0.121
same,drug sensitivity score DSS3,T-24,0
same,drug sensitivity score DSS3,UM-UC-9,0
same,drug sensitivity score DSS3,UM-UC-6,1.44
same,drug sensitivity score DSS3,SCaBER,0
same,drug sensitivity score DSS3,UM-UC-17,0
same,drug sensitivity score DSS3,UM-UC-3,0.778
same,drug sensitivity score DSS3,UM-UC-14,2.24
same,drug sensitivity score DSS3,UM-UC-15,0
same,drug sensitivity score DSS3,5637,2.24
same,drug sensitivity score DSS3,SW780,0
same,drug sensitivity score DSS3,J82,0
CC[C@]1(O)C[C@H]2CN(CCc3c([nH]c4ccccc34)[C@@](C(=O)OC)(c3cc4c(cc3OC)N(C=O)[C@H]3[C@@](O)(C(=O)OC)[C@H](OC(C)=O)[C@]5(CC)C=CCN6CC[C@]43[C@@H]65)C2)C1 [Vincristine sulfate] (max dose 10000 nM),drug sensitivity score DSS3,BC8149,13.4
same,drug sensitivity score DSS3,UM-UC-18,0
same,drug sensitivity score DSS3,UM-UC-1,11.9
same,drug sensitivity score DSS3,UM-UC-12,7.63
same,drug sensitivity score DSS3,UM-UC-5,0
same,drug sensitivity score DSS3,TCCSUP,31.4
same,drug sensitivity score DSS3,T-24,0
same,drug sensitivity score DSS3,UM-UC-9,4.67
same,drug sensitivity score DSS3,UM-UC-6,21.9
same,drug sensitivity score DSS3,SCaBER,4.97
same,drug sensitivity score DSS3,UM-UC-17,30
same,drug sensitivity score DSS3,UM-UC-3,16
same,drug sensitivity score DSS3,UM-UC-14,17.1
same,drug sensitivity score DSS3,UM-UC-15,0
same,drug sensitivity score DSS3,5637,28.7
same,drug sensitivity score DSS3,SW780,15.6
same,drug sensitivity score DSS3,J82,0
"O=C(CCCCCCC(=O)Nc1ccccc1)NO [Vorinostat (SAHA, MK0683)] (max dose 10000 nM)",drug sensitivity score DSS3,BC8149,3.4
same,drug sensitivity score DSS3,UM-UC-18,2.29
same,drug sensitivity score DSS3,UM-UC-1,0.933
same,drug sensitivity score DSS3,UM-UC-12,4.32
same,drug sensitivity score DSS3,UM-UC-5,1.08
same,drug sensitivity score DSS3,TCCSUP,16.9
same,drug sensitivity score DSS3,T-24,0.307
same,drug sensitivity score DSS3,UM-UC-9,1.41
same,drug sensitivity score DSS3,UM-UC-6,2.79
same,drug sensitivity score DSS3,SCaBER,0.514
same,drug sensitivity score DSS3,UM-UC-17,1.92
same,drug sensitivity score DSS3,UM-UC-3,0
same,drug sensitivity score DSS3,UM-UC-14,0.95
same,drug sensitivity score DSS3,UM-UC-15,5.32
same,drug sensitivity score DSS3,5637,6.1
same,drug sensitivity score DSS3,SW780,0
same,drug sensitivity score DSS3,J82,1.21
c1cncc(CN2CCC(n3ncc4c(N5CCOCC5)nc(-c5ccc6[nH]ccc6c5)nc43)CC2)c1 [WAY-600] (max dose 10000 nM),drug sensitivity score DSS3,BC8149,2.74
same,drug sensitivity score DSS3,UM-UC-18,2.09
same,drug sensitivity score DSS3,UM-UC-1,1.73
same,drug sensitivity score DSS3,UM-UC-12,0
same,drug sensitivity score DSS3,UM-UC-5,5.67
same,drug sensitivity score DSS3,TCCSUP,2.78
same,drug sensitivity score DSS3,T-24,0
same,drug sensitivity score DSS3,UM-UC-9,0.0231
same,drug sensitivity score DSS3,UM-UC-6,0
same,drug sensitivity score DSS3,SCaBER,0.14
same,drug sensitivity score DSS3,UM-UC-17,0
same,drug sensitivity score DSS3,UM-UC-3,0.117
same,drug sensitivity score DSS3,UM-UC-14,0.899
same,drug sensitivity score DSS3,UM-UC-15,0
same,drug sensitivity score DSS3,5637,0
same,drug sensitivity score DSS3,SW780,0
same,drug sensitivity score DSS3,J82,0
O=C(NNS(=O)(=O)c1ccccc1F)c1cc(F)cc(-c2ccccn2)c1 [WM-1119] (max dose 10000 nM),drug sensitivity score DSS3,BC8149,0
same,drug sensitivity score DSS3,UM-UC-18,0
same,drug sensitivity score DSS3,UM-UC-1,0.34
same,drug sensitivity score DSS3,UM-UC-12,0
same,drug sensitivity score DSS3,UM-UC-5,0
same,drug sensitivity score DSS3,TCCSUP,0.523
same,drug sensitivity score DSS3,T-24,0
same,drug sensitivity score DSS3,UM-UC-9,0
same,drug sensitivity score DSS3,UM-UC-6,5
same,drug sensitivity score DSS3,SCaBER,0
same,drug sensitivity score DSS3,UM-UC-17,0
same,drug sensitivity score DSS3,UM-UC-3,0
same,drug sensitivity score DSS3,UM-UC-14,0
same,drug sensitivity score DSS3,UM-UC-15,24.7
same,drug sensitivity score DSS3,5637,0.304
same,drug sensitivity score DSS3,SW780,0
same,drug sensitivity score DSS3,J82,0
C[C@H](NC(=O)/C(C#N)=C/c1cccc(Br)n1)c1ccccc1 [WP1066] (max dose 10000 nM),drug sensitivity score DSS3,BC8149,0
same,drug sensitivity score DSS3,UM-UC-18,0
same,drug sensitivity score DSS3,UM-UC-1,0
same,drug sensitivity score DSS3,UM-UC-12,0
same,drug sensitivity score DSS3,UM-UC-5,0.564
same,drug sensitivity score DSS3,TCCSUP,0
same,drug sensitivity score DSS3,T-24,0
same,drug sensitivity score DSS3,UM-UC-9,0
same,drug sensitivity score DSS3,UM-UC-6,0
same,drug sensitivity score DSS3,SCaBER,0
same,drug sensitivity score DSS3,UM-UC-17,0
same,drug sensitivity score DSS3,UM-UC-3,0
same,drug sensitivity score DSS3,UM-UC-14,0
same,drug sensitivity score DSS3,UM-UC-15,0
same,drug sensitivity score DSS3,5637,0
same,drug sensitivity score DSS3,SW780,0
same,drug sensitivity score DSS3,J82,0
COC(=O)Nc1ccc(-c2nc(N3CCOCC3)c3cnn(C4CCN(C(=O)OC)CC4)c3n2)cc1 [WYE-354] (max dose 10000 nM),drug sensitivity score DSS3,BC8149,4.93
same,drug sensitivity score DSS3,UM-UC-18,1.8
same,drug sensitivity score DSS3,UM-UC-1,3.41
same,drug sensitivity score DSS3,UM-UC-12,1.81
same,drug sensitivity score DSS3,UM-UC-5,1.88
same,drug sensitivity score DSS3,TCCSUP,5.91
same,drug sensitivity score DSS3,T-24,0
same,drug sensitivity score DSS3,UM-UC-9,0
same,drug sensitivity score DSS3,UM-UC-6,1.29
same,drug sensitivity score DSS3,SCaBER,2.37
same,drug sensitivity score DSS3,UM-UC-17,1.2
same,drug sensitivity score DSS3,UM-UC-3,0.759
same,drug sensitivity score DSS3,UM-UC-14,3.15
same,drug sensitivity score DSS3,UM-UC-15,0
same,drug sensitivity score DSS3,5637,1.83
same,drug sensitivity score DSS3,SW780,1.26
same,drug sensitivity score DSS3,J82,1.6
C=CC(=O)Nc1cccc(Oc2nc(Nc3ccc(N4CCN(C)CC4)cc3OC)ncc2Cl)c1 [WZ4002] (max dose 10000 nM),drug sensitivity score DSS3,BC8149,9.21
same,drug sensitivity score DSS3,UM-UC-18,1.16
same,drug sensitivity score DSS3,UM-UC-1,0.413
same,drug sensitivity score DSS3,UM-UC-12,1.35
same,drug sensitivity score DSS3,UM-UC-5,0
same,drug sensitivity score DSS3,TCCSUP,1.98
same,drug sensitivity score DSS3,T-24,0.228
same,drug sensitivity score DSS3,UM-UC-9,0
same,drug sensitivity score DSS3,UM-UC-6,0
same,drug sensitivity score DSS3,SCaBER,0.278
same,drug sensitivity score DSS3,UM-UC-17,0
same,drug sensitivity score DSS3,UM-UC-3,0.75
same,drug sensitivity score DSS3,UM-UC-14,0
same,drug sensitivity score DSS3,UM-UC-15,0
same,drug sensitivity score DSS3,5637,1.75
same,drug sensitivity score DSS3,SW780,0
same,drug sensitivity score DSS3,J82,0
CCC(=O)Nc1cccc(Oc2nc(Nc3ccc(N4CCN(C)CC4)cc3OC)ncc2Cl)c1 [WZ4003] (max dose 10000 nM),drug sensitivity score DSS3,BC8149,2.35
same,drug sensitivity score DSS3,UM-UC-18,0.729
same,drug sensitivity score DSS3,UM-UC-1,0
same,drug sensitivity score DSS3,UM-UC-12,3.91
same,drug sensitivity score DSS3,UM-UC-5,0
same,drug sensitivity score DSS3,TCCSUP,2.18
same,drug sensitivity score DSS3,T-24,0
same,drug sensitivity score DSS3,UM-UC-9,0
same,drug sensitivity score DSS3,UM-UC-6,0
same,drug sensitivity score DSS3,SCaBER,1.56
same,drug sensitivity score DSS3,UM-UC-17,0
same,drug sensitivity score DSS3,UM-UC-3,0
same,drug sensitivity score DSS3,UM-UC-14,0
same,drug sensitivity score DSS3,UM-UC-15,0
same,drug sensitivity score DSS3,5637,0
same,drug sensitivity score DSS3,SW780,0
same,drug sensitivity score DSS3,J82,0

# Part of the list above, as tab-separated lines:
smiles	measurement	setting	value
C[C@]1(c2nc3c(C(N)=O)cccc3[nH]2)CCCN1 [Veliparib (ABT-888)] (max dose 10000 nM)	drug sensitivity score DSS3	UM-UC-5	0
CCCS(=O)(=O)Nc1ccc(F)c(C(=O)c2c[nH]c3ncc(-c4ccc(Cl)cc4)cc23)c1F [Vemurafenib (PLX4032, RG7204)] (max dose 10000 nM)	drug sensitivity score DSS3	UM-UC-3	0.778
same	drug sensitivity score DSS3	UM-UC-14	2.24
CC[C@]1(O)C[C@H]2CN(CCc3c([nH]c4ccccc34)[C@@](C(=O)OC)(c3cc4c(cc3OC)N(C=O)[C@H]3[C@@](O)(C(=O)OC)[C@H](OC(C)=O)[C@]5(CC)C=CCN6CC[C@]43[C@@H]65)C2)C1 [Vincristine sulfate] (max dose 10000 nM)	drug sensitivity score DSS3	UM-UC-6	21.9
same	drug sensitivity score DSS3	SCaBER	4.97
same	drug sensitivity score DSS3	UM-UC-14	17.1
same	drug sensitivity score DSS3	5637	28.7
same	drug sensitivity score DSS3	SW780	15.6
O=C(CCCCCCC(=O)Nc1ccccc1)NO [Vorinostat (SAHA, MK0683)] (max dose 10000 nM)	drug sensitivity score DSS3	UM-UC-12	4.32
same	drug sensitivity score DSS3	T-24	0.307
same	drug sensitivity score DSS3	UM-UC-6	2.79
same	drug sensitivity score DSS3	SCaBER	0.514
c1cncc(CN2CCC(n3ncc4c(N5CCOCC5)nc(-c5ccc6[nH]ccc6c5)nc43)CC2)c1 [WAY-600] (max dose 10000 nM)	drug sensitivity score DSS3	UM-UC-18	2.09
same	drug sensitivity score DSS3	TCCSUP	2.78
same	drug sensitivity score DSS3	UM-UC-9	0.0231
same	drug sensitivity score DSS3	SCaBER	0.14
same	drug sensitivity score DSS3	5637	0
same	drug sensitivity score DSS3	SW780	0
O=C(NNS(=O)(=O)c1ccccc1F)c1cc(F)cc(-c2ccccn2)c1 [WM-1119] (max dose 10000 nM)	drug sensitivity score DSS3	UM-UC-18	0
same	drug sensitivity score DSS3	SCaBER	0
same	drug sensitivity score DSS3	UM-UC-3	0
same	drug sensitivity score DSS3	J82	0
C[C@H](NC(=O)/C(C#N)=C/c1cccc(Br)n1)c1ccccc1 [WP1066] (max dose 10000 nM)	drug sensitivity score DSS3	BC8149	0
same	drug sensitivity score DSS3	UM-UC-18	0
same	drug sensitivity score DSS3	UM-UC-9	0
same	drug sensitivity score DSS3	J82	0
COC(=O)Nc1ccc(-c2nc(N3CCOCC3)c3cnn(C4CCN(C(=O)OC)CC4)c3n2)cc1 [WYE-354] (max dose 10000 nM)	drug sensitivity score DSS3	UM-UC-18	1.8
same	drug sensitivity score DSS3	UM-UC-5	1.88
same	drug sensitivity score DSS3	TCCSUP	5.91
same	drug sensitivity score DSS3	UM-UC-9	0
same	drug sensitivity score DSS3	UM-UC-3	0.759
same	drug sensitivity score DSS3	J82	1.6
C=CC(=O)Nc1cccc(Oc2nc(Nc3ccc(N4CCN(C)CC4)cc3OC)ncc2Cl)c1 [WZ4002] (max dose 10000 nM)	drug sensitivity score DSS3	UM-UC-12	1.35
same	drug sensitivity score DSS3	UM-UC-6	0
same	drug sensitivity score DSS3	UM-UC-14	0
same	drug sensitivity score DSS3	UM-UC-15	0
same	drug sensitivity score DSS3	5637	1.75
CCC(=O)Nc1cccc(Oc2nc(Nc3ccc(N4CCN(C)CC4)cc3OC)ncc2Cl)c1 [WZ4003] (max dose 10000 nM)	drug sensitivity score DSS3	UM-UC-5	0
same	drug sensitivity score DSS3	SCaBER	1.56
same	drug sensitivity score DSS3	UM-UC-15	0
same	drug sensitivity score DSS3	5637	0
